Measured values: PubChem BioAssay AID1508600 (Functional Genomics Laboratory (NCATS/FGL), 2020)
The campaign covered roughly 53,000 sequences. About 3,700 (7%) were called active.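 Rule for the calls: active = gene knockdowns whose robust z-score for IL-1 alpha signal is at least 2 or at most -2, so actives lie on both sides; inactive = the rest.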 The list shows a part of the results.

Assay: Components of the Cytosolic LPS Sensing Pathway: Gene Identification via Genome-wide siRNA Screen;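 note: robust z of the log signal after scaling to non-targeting control siRNA wells of the plate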
Settings: RAW264.7 macrophages, IL-1a HTRF, actives lie on both sides, screened at 100 nM (by protocol), cells primed 5 h with Pam3CSK4 first
Summary of the method: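 RAW264.7; siRNA 100 nM final, RNAiMAX, 48h 37 degrees C; Pam3CSK4 5 h; LipidA + TransIT-TKO 24 h; IL-1a HTRF; CellTiter-Glo viability; robust z vs negative-control median.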

Row | Sequence | z-score
1 | GGCAUAAGAAAAUGGACCCTT against Fhit | active: 2.04
2 | GGAUAGUGAAGUCAUUGAATT against Pbrm1 | inactive: 1.43
3 | GGCCAUUCUGUCAAAUUCATT against Smpd1 | inactive: 0.545
4 | GGGUCAUUCUGCUAUUCCUTT against Taar7d | inactive: -1.46
5 | GCAGCAUACUAAUAAACUGTT against Acot13 | inactive: 0.134
6 | GCUAAACUCGCUCAAUCUGTT against Cd14 | inactive: 0.537
7 | GGUCUUCUGUCCAUUAGUGTT against Pigc | inactive: 0.14
8 | GGUGGAUGAAAUCUACACATT against Gtpbp2 | inactive: 0.359
9 | GGUGAAGAAUGCUACACAATT against Htr5a | inactive: 1.03
10 | CCAAAAGGCGUAUUUUGGCTT against Anp32a | inactive: -0.193
11 | GGAAAAUGCCAUGAAAAAGTT against Ccdc60 | inactive: -0.545
12 | GCAAACGCAGCAGAAUAGCTT against Washc3 | inactive: 0.187
13 | CGUCGUUAACAACACUUUGTT against Gns | inactive: 0.637
14 | GGAAGAUAGUGUUUUCCACTT against Olfr802 | inactive: -0.342
15 | GGUGAGGAAGUCCUGUGUCTT against Lynx1 | inactive: -0.449
16 | GGAAGAGCUUCCCUGUCUATT against Gltpd2 | inactive: 0.487
17 | GGAAUUCCUCUGUAUGAAATT against Pgr | inactive: -0.824
18 | GGAUCAAUUCUAGAAUCAGTT against Runx3 | inactive: 0.586
19 | CGAUGCUGUGGAACUGCACTT against Ptgfrn | inactive: 0.417
20 | CCCAUUACAAUGUCACCAGTT against Erp27 | inactive: -0.278
21 | GGGAGAUAGCCGAUAUAUCTT against Ebp | inactive: -0.904
22 | CCAUAUGAUAAGCAUAAGCTT against Zfp449 | inactive: 0.149

Single values from the entries so far:
GCAGCAUACUAAUAAACUGTT against Acot13 – z-score: inactive: 0.134
CCAUAUGAUAAGCAUAAGCTT against Zfp449 – z-score: inactive: 0.149
GGCCAUUCUGUCAAAUUCATT against Smpd1 – z-score: inactive: 0.545

(listing goes on)

Row | Sequence | z-score
23 | GGAUGACCAAGAAUGGGAATT against Dap | inactive: 0.341
24 | GGGAAAAGUGACAAUUGCUTT against Dusp8 | inactive: 0.757
25 | GAGCUCCUCUGCUUUCUCUTT against Ms4a6d | active: -2.74
26 | CGUCUUUGCCCAUACACUCTT against A230052G05Rik | inactive: -0.917
27 | GGGAGAGGUGUUACACCCUTT against Adamts10 | inactive: -0.887
28 | GGGCUAAUUUAAACACCUATT against Rdh19 | inactive: -0.0625
29 | CCGUCAUCACUGAUCAGUUTT against Olfr684 | active: 2.7
30 | CCCAUAGAACAUCUUAAAATT against Ifi202b | inactive: -0.403
31 | GGACUUUCUUAACUACACUTT against Slc2a3 | inactive: 0.865
32 | GGUGAGUGAUCUUCAGAACTT against Snx13 | inactive: 0.311
33 | GGUGGAUUCUUUCUCCUUCTT against Fundc2 | inactive: 1.18
34 | GGCAUUACUGGGUACCUACTT against Acot8 | inactive: 1.18
35 | GGAGAAAGCUUACUGCCUUTT against Lrrc6 | inactive: -0.959
36 | CCAGUAUUCAUGUAAAUGGTT against Crbn | inactive: 0.753
37 | GGCAAAUGGAUCUUUAUAATT against Eef1aknmt | inactive: -0.928
38 | GGACAAGUUUGAAUUUGACTT against Usp5 | inactive: -0.673
39 | GGAUUCACACAAUGGCAAGTT against Rpl39 | inactive: 1.16
40 | GGCUACAGCAGGAGAAUCATT against Bicdl2 | inactive: 0.296
41 | GCUGGUGUCAUUAGACAGUTT against Npc1l1 | inactive: 0.312
42 | GCACUUGAACCGUGAGUGUTT against Det1 | inactive: 1.43
43 | CCUGAUUGUGUGUUCAUAATT against Ccdc92 | inactive: 0.229
44 | GCUUUACGAUACUCCAUAUTT against Shd | inactive: -0.506

Row | Sequence | z-score
45 | GGGCAGUCCUCGUUUCUUATT against Rdm1 | inactive: 0.153
46 | GGCAAAGGCACUGUCAGUGTT against Ddx60 | inactive: -1.68
47 | GUGGCAGCUGACAUGAAUGTT against Plac8 | inactive: -0.138
48 | GGAAAUAGGCAACAAAUAGTT against Gm4894 | inactive: -0.982
49 | GGCAAUGGAGAGAGAGAUGTT against Patl1 | active: -2.36
50 | GGCCUGUGGAAGAAAUACGTT against Pdhb | inactive: 1.82
51 | GGAGCAUUUCCUCACAACATT against Idh3g | inactive: -1.18
52 | GCACUUUUGUAAAAAUCACTT against Aak1 | inactive: -0.825
53 | CGUAAUACAAUCCAGUUCATT against Aqr | active: -2.18
54 | GCUACCUGAAACACAGCAATT against Hes5 | inactive: -0.334
55 | GGAACAACAUCCGUAUUGCTT against Brsk2 | inactive: -0.3
56 | GCAUGUAGAUACGUGGGUATT against Usp38 | inactive: -0.383
57 | GGGAAUUUGUGAGCUAGAATT against Cinp | inactive: -1.94
58 | CCAAGAUUGACAUCAUCCGTT against Pkn1 | inactive: -0.595
59 | CCUAGUGUGUUAAUUGUAATT against Ric1 | inactive: -1.28
60 | GCCUAGCUGAAAACGUGUCTT against Cog4 | active: 5.04
61 | GGAACAACAUGAUUGUCGUTT against Ugt1a6a | inactive: 1.24
62 | GGUUAAAUCCCUGAUGUAUTT against Ptdss1 | inactive: -0.613
63 | GGAGGGUACUCACAGGAAATT against Olfr411 | active: -2.05
64 | GCUAGCCGUGUUUUCUAUUTT against Twist2 | inactive: 1.43
65 | GGUUUUGUUCAGGGAUCAUTT against Ppm1m | inactive: 0.329
66 | GGACAACACUAUCAACAAATT against Iqce | inactive: -0.778

Reformatted as tab-separated lines: part of the list above.
Row	Sequence	z-score
45	GGGCAGUCCUCGUUUCUUATT against Rdm1	inactive: 0.153
46	GGCAAAGGCACUGUCAGUGTT against Ddx60	inactive: -1.68
47	GUGGCAGCUGACAUGAAUGTT against Plac8	inactive: -0.138
48	GGAAAUAGGCAACAAAUAGTT against Gm4894	inactive: -0.982
49	GGCAAUGGAGAGAGAGAUGTT against Patl1	active: -2.36

The results go on.

Row | Sequence | z-score
67 | CCUCAAUGAGAGUCUAAUGTT against Olfr97 | inactive: -1.63
68 | GGUGUCUGAGUAAUUCUGGTT against Zscan5b | inactive: -1.55
69 | GGACUGAACCCAAAUGCCUTT against Chtf8 | inactive: -1.45
70 | CGCAGUGUGUCUCAUUUAATT against Anxa5 | inactive: 1.61
71 | AACCGUUAUUAAAAGUGGGTT against Mucl2 | inactive: -1.27
72 | GGUGUAAGAACUUCAAGUUTT against Tlr9 | inactive: 0.199
73 | GGUCAACAACCUCAUCUGCTT against Lhx6 | inactive: -0.406
74 | GGUGUUGUGGAAUAUUUAATT against Cnot6l | inactive: 1.23
75 | GGAUGGACCGGAGACAACUTT against Brs3 | inactive: 0.533
76 | CCCAAGAAUUCAAAUCCUATT against Rgr | inactive: -1.39
77 | GGACUGAAGUGAAAUAAAUTT against Trav13-5 | inactive: -0.949
78 | GGACUAUCAGGACCUUUUUTT against Dnajb3 | inactive: -0.363
79 | CCUUGAGCACAUCUGCUUGTT against Serpina3k | inactive: -1.52
80 | CCCGGAAUGUUUAGUAUCGTT against Fermt1 | inactive: -1.25
81 | CCAUCUCCUUCAUUCUGUGTT against Olfr444 | inactive: -1.15
82 | UGGUCACCUUUCUCUUAUUTT against Tas2r140 | inactive: -0.575
83 | GGGAAACUCUUUGAAGAUATT against Lsm5 | inactive: -0.601
84 | GGCAACUGUUGGAUUGAUUTT against Ctnnb1 | inactive: -0.201
85 | GGACUUUAGUGACAGCUAUTT against Fam243 | inactive: -0.233
86 | CCCUAUGUUCUUUGUCUAUTT against Brinp1 | inactive: -1.26
87 | GGCGCAUAUGUAGCACCUATT against Egfl8 | inactive: -0.24
88 | GGCCUAUCUCAUCUAUUUCTT against Ptpru | inactive: 0.0271

Row | Sequence | z-score
89 | GGAGUUUGUAACCCUCCUGTT against Cabp7 | inactive: 1.07
90 | GGGACCAGAUCAAGACACUTT against Shroom2 | inactive: -0.624
91 | GGACAGAUUUGUGAAUGAUTT against Rcn2 | inactive: -0.379
92 | CGCAAGUAUUUCCACCAUATT against Clk4 | inactive: -0.41
93 | GGCAGAAGUUGGAAGAAAUTT against Tap1 | inactive: 0.277
94 | GGAAUUUGUCAGGUUCCAATT against Grik4 | inactive: 0.859
95 | CCAUUUGCUAUUGCUUAAATT against Faf2 | inactive: 0.0141
96 | GCAGCCCACUCAUAUGAAATT against Homez | inactive: -0.507
97 | AAACAGUCAUUUCCUAUAGTT against Olfr1502 | active: -2.04
98 | GGAAUCAUUUGUUCCCAACTT against Lpl | inactive: -0.44
99 | GGAUGUUGUUCGAUUUGGATT against Ubiad1 | inactive: 0.895
100 | GGAAAAGAUUGACAUCUGCTT against Jrk | inactive: -0.544
101 | CCUGGAACUUGUUGGAAGCTT against Igsf3 | inactive: 0.799
102 | GGAGAUCACAUGUUUUUUUTT against Keap1 | inactive: 0.231
103 | GCCUAUCUUGUCACCACUGTT against Tagln2 | inactive: -0.276
104 | GGCAUCUUCCUGAAAAAGCTT against Mybpc2 | inactive: -0.2
105 | UCAUUAGUAUCCUCCGUAUTT against Olfr919 | inactive: 0.27
106 | CCAUUUCCCAUUUCUGAAGTT against 1700001P01Rik | active: -2.22
107 | CCAUCCGGGAAAAAAUCAATT against Cdk5rap3 | inactive: -0.0797
